Values from PubChem BioAssay AID1224826 (NIAID, 2016)

Purpose: 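Genes that change LPS-induced Tnf promoter activity in mouse macrophages when knocked down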 (primary screen)
System: RAW264.7 G9 macrophages from mouse bearing reporters for p65 (GFP) and the Tnf promoter (mCherry)
Knock-down reagent: siRNA pool against mouse genes, 100 nM
Time to read-out: 16 h of LPS stimulation, after 2 days of siRNA transfection
Treatment: bacterial lipopolysaccharide (Salmonella minnesota R595), 10 ng/ml
Measured: 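Nuclear mCherry signal of the Tnf promoter reporter measured by imaging after background removal, scaled to each plate median and turned into robust z-scores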
Scale: Tnf reporter robust z-score: higher = stronger Tnf promoter reporter signal after LPS; Tnf reporter intensity: higher = stronger Tnf promoter reporter signal
Hit rule: 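Called active when robust z-score is at most -1.3, matching the median of the Tlr4 knock-down control, or over 3; control wells and wells with under 50 cells never active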
Meaning of the calls: active = Tnf reporter clearly lowered or raised; inactive = no clear change in Tnf reporter
In all, the deposit lists about 17,000 reagents; this is an unselected part. Of all reagents, about 1,110 (6.6%) got an active call. 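Active means lowered or raised reporter signal; replicate intensities are raw and not normalised per plate.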 Further read-outs or replicates are left out here.

Gene | Tnf reporter robust z-score | fewer than 50 cells in well | Tnf reporter intensity, replicate 1 | Outcome
Fkbp3 (GeneID 30795) | 2.01 | enough cells in well | 431 | inactive
Ints11 (GeneID 71957) | – | fewer than 50 cells per well; well left out of calls | 156 | inactive
Arhgdib (GeneID 11857) | -1.35 | enough cells in well | 81.7 | active
Gpr141b (GeneID 319293) | -0.58 | enough cells in well | 161 | inactive
Cpeb1 (GeneID 12877) | 2.38 | enough cells in well | 343 | inactive
Or51f1e (GeneID 259091) | -0.63 | enough cells in well | 91.3 | inactive
Hmgcs1 (GeneID 208715) | – | fewer than 50 cells per well; well left out of calls | 210 | inactive
Alkbh7 (GeneID 66400) | – | fewer than 50 cells per well; well left out of calls | 83 | inactive
Or4c104 (GeneID 258450) | 0.22 | enough cells in well | 198 | inactive
Clcn2 (GeneID 12724) | -0.36 | enough cells in well | 260 | inactive
Slc17a5 (GeneID 235504) | 0.12 | enough cells in well | 230 | inactive
Armcx2 (GeneID 67416) | -0.62 | enough cells in well | 160 | inactive
Ptk2b (GeneID 19229) | -0.32 | enough cells in well | 173 | inactive
Cdc7 (GeneID 12545) | 2.05 | enough cells in well | 400 | inactive
Atoh8 (GeneID 71093) | -0.21 | enough cells in well | 128 | inactive
Smim48 (GeneID 103712) | 0.66 | enough cells in well | 202 | inactive
Anxa3 (GeneID 11745) | -0.46 | enough cells in well | 145 | inactive
Speer4f1 (GeneID 70935) | 0.87 | enough cells in well | 156 | inactive
Lrrcc1 (GeneID 71710) | -1.32 | enough cells in well | 123 | active
Tpsg1 (GeneID 26945) | -1.28 | enough cells in well | 69 | inactive
Nkx2-6 (GeneID 18092) | 0.1 | enough cells in well | 220 | inactive
Fam241b (GeneID 69894) | – | fewer than 50 cells per well; well left out of calls | 289 | inactive
Atp8b2 (GeneID 54667) | 0.7 | enough cells in well | 157 | inactive
Tmem132a (GeneID 98170) | -1.33 | enough cells in well | 133 | active
Edn1 (GeneID 13614) | -0.17 | enough cells in well | 215 | inactive
Or5al7 (GeneID 258570) | 0.97 | enough cells in well | 213 | inactive
Chad (GeneID 12643) | -1.16 | enough cells in well | 82.3 | inactive
Kbtbd4 (GeneID 67136) | -1.08 | enough cells in well | 137 | inactive
Tnnc2 (GeneID 21925) | 0.5 | enough cells in well | 260 | inactive

The list goes on, starting with the last 9 of the part before.
Gene | Tnf reporter robust z-score | fewer than 50 cells in well | Tnf reporter intensity, replicate 1 | Outcome
Nkx2-6 (GeneID 18092) | 0.1 | enough cells in well | 220 | inactive
Fam241b (GeneID 69894) | – | fewer than 50 cells per well; well left out of calls | 289 | inactive
Atp8b2 (GeneID 54667) | 0.7 | enough cells in well | 157 | inactive
Tmem132a (GeneID 98170) | -1.33 | enough cells in well | 133 | active
Edn1 (GeneID 13614) | -0.17 | enough cells in well | 215 | inactive
Or5al7 (GeneID 258570) | 0.97 | enough cells in well | 213 | inactive
Chad (GeneID 12643) | -1.16 | enough cells in well | 82.3 | inactive
Kbtbd4 (GeneID 67136) | -1.08 | enough cells in well | 137 | inactive
Tnnc2 (GeneID 21925) | 0.5 | enough cells in well | 260 | inactive
Sorbs1 (GeneID 20411) | 0.02 | enough cells in well | 98.6 | inactive
Trim37 (GeneID 68729) | -0.24 | enough cells in well | 192 | inactive
Cxcl17 (GeneID 232983) | -0.2 | enough cells in well | 162 | inactive
Crb3 (GeneID 224912) | 0.42 | enough cells in well | 231 | inactive
Slc25a45 (GeneID 107375) | -0.66 | enough cells in well | 124 | inactive
Sacm1l (GeneID 83493) | -1.54 | enough cells in well | 85 | active
Tubd1 (GeneID 56427) | 0.57 | enough cells in well | 266 | inactive
Epm2aip1 (GeneID 77781) | 1.24 | enough cells in well | 334 | inactive
Gpaa1 (GeneID 14731) | -0.32 | enough cells in well | 192 | inactive
Glb1 (GeneID 12091) | -0.35 | enough cells in well | 236 | inactive
Rorb (GeneID 225998) | 0.01 | enough cells in well | 324 | inactive
4932407I05 (GeneID 224662) | – | fewer than 50 cells per well; well left out of calls | 130 | inactive
Ccdc127 (GeneID 67433) | 0.6 | enough cells in well | 378 | inactive
Cnnm4 (GeneID 94220) | 0.15 | enough cells in well | 278 | inactive
Rab12 (GeneID 19328) | 0.04 | enough cells in well | 132 | inactive
Arhgef15 (GeneID 442801) | 0.13 | enough cells in well | 231 | inactive
Naxd (GeneID 69225) | -0.61 | enough cells in well | 185 | inactive
Wnt9a (GeneID 216795) | -0.93 | enough cells in well | 118 | inactive
Robo3 (GeneID 19649) | 0.88 | enough cells in well | 150 | inactive
Tram2 (GeneID 170829) | -0.62 | enough cells in well | 94.2 | inactive
Ffar1 (GeneID 233081) | 0.41 | enough cells in well | 224 | inactive
Mal (GeneID 17153) | -0.54 | enough cells in well | 142 | inactive
Hyal3 (GeneID 109685) | -1.41 | enough cells in well | 112 | active
Coq8b (GeneID 76889) | -0.04 | enough cells in well | 217 | inactive
Chac2 (GeneID 68044) | 1.47 | enough cells in well | 334 | inactive
Selenoo (GeneID 223776) | -1.28 | enough cells in well | 165 | inactive
Tmem26 (GeneID 327766) | 2.31 | enough cells in well | 340 | inactive
Rag1 (GeneID 19373) | -1.26 | enough cells in well | 198 | inactive
4932425I24RIK | 1.97 | enough cells in well | 248 | inactive
Cldn9 (GeneID 56863) | -0.86 | enough cells in well | 117 | inactive
Tepsin (GeneID 78777) | – | fewer than 50 cells per well; well left out of calls | 45.6 | inactive
Ssbp4 (GeneID 76900) | -0.94 | enough cells in well | 60.1 | inactive
P2ry4 (GeneID 57385) | -0.6 | enough cells in well | 272 | inactive
Odf2l (GeneID 52184) | -0.94 | enough cells in well | 140 | inactive
Cpb1 (GeneID 76703) | -0.69 | enough cells in well | 170 | inactive
Col5a3 (GeneID 53867) | -0.96 | enough cells in well | 160 | inactive
Eva1a (GeneID 232146) | 0.08 | enough cells in well | 176 | inactive
Hnrnpm (GeneID 76936) | 0.28 | enough cells in well | 219 | inactive
Or4p23 (GeneID 404330) | -0.62 | enough cells in well | 146 | inactive
Ephx2 (GeneID 13850) | -0.27 | enough cells in well | 209 | inactive
Cldn17 (GeneID 239931) | -0.37 | enough cells in well | 78.9 | inactive
Vps33a (GeneID 77573) | -0.78 | enough cells in well | 88.5 | inactive
Npas2 (GeneID 18143) | -0.72 | enough cells in well | 174 | inactive
Cdadc1 (GeneID 71891) | – | fewer than 50 cells per well; well left out of calls | 170 | inactive
Tpd52l2 (GeneID 66314) | -1.52 | enough cells in well | 143 | active
Cyp4f14 (GeneID 64385) | -0.58 | enough cells in well | 122 | inactive
